# This is one part of the list. Values are raw readings; no control value is given beside them.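 First-pass screen: polymyxin B was added at a level that permeabilizes the Salmonella outer membrane while sparing the inner membrane. DMSO wells, with and without polymyxin B, defined maximum growth. Because plates differed from one another, each plate's data were ranked separately and the compounds with the lowest OD600 were carried forward as hits.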
# Tested on: Salmonella enterica serovar Typhimurium SL1344
# Assay: bacterial growth OD600 after 18 h with compound and polymyxin B; higher = more bacterial growth (less inhibition)
# Conditions: 50 µM, Mueller-Hinton broth
SMILES,bacterial growth OD600 (polymyxin B 1 µg/mL),bacterial growth OD600 (polymyxin B 0.75 µg/mL)
CCC(O)CNC(=O)CCc1nnc(C2(c3ccc(Cl)cc3)CCC2)o1 (centres undefined),0.963,
COc1ccc(CC(=O)NCC2CCCN(C(=O)CSC)C2)cc1 (centres undefined),,0.854
COCCC(=O)NC1CC(=O)N(CCc2ccccc2)C1 (centres undefined),1.1,
CN(Cc1ccc(F)cc1)c1ccc(OCC(=O)NCC2(N3CCOCC3)CCCCC2)nn1,,0.012
CO[C@H]1[C@H](NC(=O)CSC)c2ccccc2C12CCN(Cc1ccc(N3CCCC3)cc1)CC2,,0.003
COCCN1C(=O)CC(CC(=O)N2CCCC(c3cccc(C)c3)C2)(c2ccccc2OC)C1=O (centres undefined),,0.002
CCOC(=O)N1CCN(C(=O)c2ccc(N3CCC(NCCCN4CCCC4=O)CC3)cc2)CC1,,0.758
O=C(c1ccccc1OC1CCN(Cc2cc3ccccc3o2)CC1)N1CCCC1,0.912,
Cc1cc(C)nc(CNc2nncc(-c3cc4ccccc4o3)n2)n1,,0.8
COc1ccc(CN(C)Cc2nc(Cc3ccccc3Cl)no2)cc1OC,0.903,
CN(C)c1cc(N2CCC(C3CCN(Cc4cccnc4)CC3)C2)ncn1 (centres undefined),,0.903
O=C(CSc1ccc2nnc(-c3cccnc3)n2n1)NCC1(N2CCOCC2)CCCCCC1,,0.912
COc1ccc(S(=O)(=O)NCC2CCCN(Cc3cc(C(C)C)[nH]n3)C2)cc1 (centres undefined),,1
Cc1ccccc1CCN1CCCC(CN(C)C(=O)Cc2ccsc2)C1 (centres undefined),0.776,
COc1cccc(OCc2cc(C(=O)NCC(C)c3ccccc3)no2)c1 (centres undefined),,0.561
CC#CCN1C(=O)NC(Cc2cccc(F)c2)(C2CCN(C(=O)CC3=CCCCC3)CC2)C1=O (centres undefined),,0.832
CCN1CCN(C(=O)CCC2CCN(C(=O)c3sccc3C)CC2)CC1,0.998,
Cn1c(CNC(=O)CCC2(Cc3cccs3)CCC(=O)N2)nc2cc(C(F)(F)F)ccc21 (centres undefined),,0.739
CCOC(=O)C1(Cc2ccc(F)cc2)CCCN(C(=O)c2cn3c(C)cccc3n2)C1 (centres undefined),0.004,

# Given with bars between the fields: part of the list above
SMILES | bacterial growth OD600 (polymyxin B 1 µg/mL) | bacterial growth OD600 (polymyxin B 0.75 µg/mL)
CN(Cc1ccc(F)cc1)c1ccc(OCC(=O)NCC2(N3CCOCC3)CCCCC2)nn1 |  | 0.012
Cn1c(CNC(=O)CCC2(Cc3cccs3)CCC(=O)N2)nc2cc(C(F)(F)F)ccc21 (centres undefined) |  | 0.739

# Reference: the supplement of paper PMC12889115
